Measurements published in US9011882B2, “Dimethylarginine dimethylaminohydrolase inhibitors and methods of use thereof” (The Board of Trustees of the Leland Stanford Junior …, priority 2012, dated 2015).
Not every entry of the source has a single result; some have several. This is not the full list of results. An entry can have further records. Results that share an entry differ, and nothing given here explains why; some may be repeats, others may stem from another dose, organism or construct than stated.

The chains behind the UniProt entries cited, without tags or fusion partners.
UniProt O94760, whole entry: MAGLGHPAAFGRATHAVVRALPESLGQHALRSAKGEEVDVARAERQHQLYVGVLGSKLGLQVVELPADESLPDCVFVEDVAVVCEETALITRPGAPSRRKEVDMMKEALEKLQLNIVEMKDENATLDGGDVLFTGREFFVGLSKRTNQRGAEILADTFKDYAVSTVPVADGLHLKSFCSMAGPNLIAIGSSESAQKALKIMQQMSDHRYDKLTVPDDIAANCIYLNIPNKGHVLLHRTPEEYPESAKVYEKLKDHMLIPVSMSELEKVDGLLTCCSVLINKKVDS

Target: recombinant human DDAH1 (rhDDAH1) (Homo sapiens (Human), UniProt O94760)
Assay: Colorimetric L-citrulline assay of DDAH activity (ADMA substrate; high throughput screen and orthogonal validation)
Format: biochemical
Settings: high throughput screen of library copies (BMF-6, BMF-7, BMF-8, MicroSource, LOPAC), dose-dependent inhibition

IC50: 61.4 µM, 20 µM, 85 µM
Structure (SMILES): COc1ccc2[nH]c([S+]([O-])Cc3ncc(C)c(OC)c3C)nc2c1 (stereo not shown) [Omeprazole]
